Values quoted from earlier work in publication PMC4019635 (PLoS ONE, 2014).

Tests used:
[1] = tested on: RDLbdR^122G with the A^301G mutation; details: cited from earlier work
RDLbdR^122G = details: read-out: GABA EC50; without A^301G; cited from earlier work

## NCCCC(=O)O [GABA, γ-amino butyric acid]
[1]
  EC50: 26 µM
RDLbdR^122G
  EC50: 70 µM
